Source: PubChem BioAssay AID1259415 (National Center for Advancing Translational Sciences (NCATS), 2018)
The campaign covered roughly 410,000 compounds. About 18,000 (4.4%) were called active. This list was built around the results that the source calls inconclusive (neither active nor inactive); the mix of calls is not that of the screen. Rule as the data show it: active = activity change below about -60%; inconclusive = no clear call, values can overlap the other calls; inactive = above about -39%. Some compounds were tested as several samples or in several runs, with calls that do not always agree.

test: qHTS Assay for inhibitors of the human cytomegalovirus (HCMV); settings: HFF cells, HCMV-luciferase reporter, 72 h; at 57.5 µM; stronger effect = lower value
How it was run: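 Screen run at 2 compound doses on HFFs infected with reporter HCMV, MOI 1 PFU/cell. Luciferase activity from cell lysates at 72 h post infection gave inhibition relative to buffer-only and Salinomycin wells.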
% is scaled to controls: 0 for no effect and ±100 for the full control effect.

SMILES	activity change, negative = inhibition
Fc1ccc(C2=Nn3c(Cc4ccccc4)nnc3SC2)cc1	inconclusive: -55.1%
CCOC(=O)c1ccc(NC(=S)N2CCN(CCN=CC3=C(O)CC(c4ccccc4)CC3=O)CC2)cc1 (centres undefined)	inactive: -21.4%
CN=C1SC(CC(=O)Nc2ccccc2F)C(=O)N1/N=C/c1ccc(O)c(OC)c1 (centres undefined)	inactive: 0%
COc1cc(NC(=O)[C@@H](NC(=O)N2CCn3c2nc2ccccc23)C(C)C)cc(OC)c1	inactive: -25.4%
CCOC(=O)c1cn2nc(Oc3ccc(C(=O)OC)cc3)ccc2n1	inactive: 12.2%
COc1ccc(C(=O)CCN2CCc3cc(OC)c(OC)cc3C2)cc1	inconclusive: -43.8%
O=C(NCC(c1ccco1)N1CCc2ccccc21)C(=O)Nc1ccccc1F (centres undefined)	inconclusive: -42.2%
Cn1c(=O)c2cc(NC(=O)NCc3ccc(Cl)cc3Cl)ccc2n1Cc1ccccc1	inconclusive: -53.1%
CCCCn1c(NC(=O)c2ccco2)c(C(=O)OCC)c2nc3ccccc3nc21	active: -69%
O=C(NNC(=O)c1cccc2ccccc12)c1ccc2c(c1)OCO2	inconclusive: -50.1%
CC1(C)CC(=O)C(N=Nc2ccc(Cl)cc2)=C(O)C1	inconclusive: -41.7%
COc1ccc(NC(=O)CNC(=O)Cn2cnc3sc4c(c3c2=O)CCCC4)cc1OC	inactive: -23.3%
CSc1nn(Cc2ccc(Br)cc2)c(N(C(C)=O)C(C)=O)c1S(=O)(=O)c1ccccc1	inconclusive: -46.6%
CCCNC(=O)C1(C)CCCN(C(=O)c2ccc(C)c(F)c2)C1 (centres undefined)	inactive: 13.1%
Cc1ccc(C)c(Cn2c(CN(C)Cc3ccccc3)nc3c2c(=O)n(C)c(=O)n3C)c1	inconclusive: -51.5%
COc1ccc(-c2nc(-c3ccccn3)nc(N3CCN(C)CC3)c2C#N)cc1	inconclusive: -49.9%
C=CCN(CC=C)C(=S)NC(=O)c1ccc(OC)cc1	inconclusive: -48.5%
O=C(CN1C(=O)c2ccccc2S1(=O)=O)c1ccc(F)c(F)c1	inconclusive: -58.2%
Cc1cc(C)nc(-n2ncc3c2CC(C)CC3=O)n1 (centres undefined)	inconclusive: -49.7%
O=C(CCSc1ccc(Cl)cc1)N1CCN(c2ccc(O)cc2)CC1	inconclusive: -56.4%
O=C(CCC1CCCC1)Nc1cc(Cl)ccc1N1CCOCC1	inconclusive: -49%
CSc1cccc(NC(=O)C2CCN(S(=O)(=O)c3ccc4c(c3)NC(=O)CO4)CC2)c1	inconclusive: -54%
Cc1ccccc1CSc1nnc2[nH]c(=O)cc(C)n12	inconclusive: -46.8%
O=C(Cc1cccc2ccccc12)NCCc1ccccc1	inconclusive: -43.9%
CCN(CC(=O)Nc1ccc2c(c1)OCCO2)C(=O)c1ccc(C)c(S(=O)(=O)N2CCOCC2)c1	inactive: 0.743%
Cc1ccc(C)c(OCC(O)CN2CCC(Cc3ccccc3)CC2)c1 (centres undefined)	active: -111%
O=C(Nc1ccc2c(c1)N(C1CCCC1)C(=O)c1ccccc1S2)c1ccc(F)cc1	inconclusive: -54%

Another view of some results above.
SMILES | activity change, negative = inhibition
CSc1nn(Cc2ccc(Br)cc2)c(N(C(C)=O)C(C)=O)c1S(=O)(=O)c1ccccc1 | inconclusive: -46.6%
CCCNC(=O)C1(C)CCCN(C(=O)c2ccc(C)c(F)c2)C1 (centres undefined) | inactive: 13.1%

Going on with the list.

SMILES	activity change, negative = inhibition
COC(=O)/C(=C1/Oc2cc(C)oc(=O)c2S1)C(F)(F)F	inconclusive: -43.6%
CCOc1ccccc1N1CCN(C(=S)NCc2ccccc2)CC1	active: -88%
O=S(=O)(c1cccc(Cl)c1)c1nnn2c1nc(NC1CCCCCC1)c1sccc12	inconclusive: -58.4%
COc1cc(C)c(CNc2cccc(C)c2)cc1C	inconclusive: -43.1%
O=C(/C=C/c1c(Cl)nc2ccccn12)N1CCN(c2ccccc2F)CC1	inconclusive: -54.9%
COc1ccc(CNC(=O)Cn2nc([N+](=O)[O-])cc2C)cc1	inconclusive: -47.8%
CC1Sc2ccc(S(=O)(=O)CCC(=O)N3CCN(c4cccc(Cl)c4)CC3)cc2NC1=O (centres undefined)	active: -63%
Cc1ccc(CNC(=O)Cn2nnc(C(=O)Nc3cccc(C)c3C)c2N)cc1	inconclusive: -41.1%
N#CNC(=Nc1cccc(F)c1)SCc1cccc(F)c1	inconclusive: -41.5%
Cc1c(C(=O)N(C)c2cccc(C(F)(F)F)c2)sc2nc3n(c(=O)c12)CCCCC3	active: -76.2%
CCOc1ccc(CNC(=O)c2cnc3sc(N4CCC(C)CC4)nn3c2=O)cc1OC	inactive: -5.06%
CCCCCCCNC(=O)C1(CC2CC(c3ccc(Cl)cc3)=NO2)CCNCC1 (centres undefined)	active: -99.7%
CC(=O)c1c(C)[nH]c(C(=O)OCC(=O)NCCc2ccc(F)cc2)c1C	inactive: 12%
CCCCNc1c(-c2ccc(OC)c(SC(C)CC)c2)nc2ccc(C)cn12 (centres undefined)	active: -63.2%
Cc1cccc(C)c1NC(=S)NCCSc1ccc(Cl)cc1	inconclusive: -56%
COc1ccc(N2CC(C(=O)Nc3nnc(SCc4ccccn4)s3)CC2=O)cc1 (centres undefined)	inconclusive: -45.8%
Cc1ccc(C)c(/C=C/C(=O)c2ccccc(=O)c2O)c1	active: -101%
CC[C@H](C)[C@H](NC(=O)OCc1ccccc1)C(=O)Nc1ccc(NC(C)=O)cc1	inactive: -38%
O=C(Nc1ncc(Cc2cccc(C(F)(F)F)c2)s1)c1ccc(-c2cccc([N+](=O)[O-])c2)o1	inconclusive: -42.8%
Cc1cc(N/N=C\c2ccc(Br)cc2)nc(-n2nc(C)cc2C)n1	inconclusive: -51.5%
Cc1cc(C)cc(N(CC(=O)Nc2ccc(-c3nc4ccc(C)cc4s3)cc2)S(C)(=O)=O)c1	inactive: 47.6%
CC(=O)N1CCN(S(=O)(=O)c2cccc(C(=O)N(Cc3ccccc3)c3cccc(C)c3)c2)CC1	inconclusive: -47.3%
CCOC(=O)N1CCN(c2cccc(C)c2C)CC1	inactive: -22.2%
NNc1nc(-c2ccccc2)c2cc(Cl)ccc2n1	inactive: -32.9%
Cc1ccc(CNC(=O)c2nnn(CC(=O)Nc3cc(C)cc(C)c3)c2N)cc1	inconclusive: -41.7%
CC1CCC(C(C)C)C(OC(=O)Cn2c(-c3ccc(F)cc3)[n+](C)c3ccccc32)C1 (centres undefined)	active: -102%
C[C@@H](c1ccccc1)N1C[C@H](COCc2ccccc2)Oc2cc(N3CC[C@@H](N(C)C)C3)ccc2S1(=O)=O	inconclusive: -50%
